Some of the results follow.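 The calls were made as follows: active = dose-dependent thermal stabilisation significant by F-test of dose-response against flat model at 10% FDR; inactive = not significant.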
Compound: Nc1nc2c(ncn2[C@@H]2O[C@H](COP(=O)(O)OP(=O)(O)OP(=O)(O)O)[C@@H](O)[C@H]2O)c(=O)[nH]1
Assay: dose-dependent thermal stabilisation call (2D-TPP, DLPTP, 10% FDR) (binary (1 = stabilised)); higher = stabilised by the compound
Conditions: system: Jurkat gel-filtered lysate; concentration range 1-500 µM

Sequences of proteins named here, by UniProt entry; tags and fusion partners are left off. A change or cut given only in a name is not applied to a line headed by its entry.
UniProt P63208, whole entry: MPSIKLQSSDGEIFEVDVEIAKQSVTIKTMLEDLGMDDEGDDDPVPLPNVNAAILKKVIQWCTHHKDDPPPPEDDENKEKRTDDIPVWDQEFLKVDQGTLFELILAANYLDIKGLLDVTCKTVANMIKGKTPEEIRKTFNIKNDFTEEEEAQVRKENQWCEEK
UniProt Q99717: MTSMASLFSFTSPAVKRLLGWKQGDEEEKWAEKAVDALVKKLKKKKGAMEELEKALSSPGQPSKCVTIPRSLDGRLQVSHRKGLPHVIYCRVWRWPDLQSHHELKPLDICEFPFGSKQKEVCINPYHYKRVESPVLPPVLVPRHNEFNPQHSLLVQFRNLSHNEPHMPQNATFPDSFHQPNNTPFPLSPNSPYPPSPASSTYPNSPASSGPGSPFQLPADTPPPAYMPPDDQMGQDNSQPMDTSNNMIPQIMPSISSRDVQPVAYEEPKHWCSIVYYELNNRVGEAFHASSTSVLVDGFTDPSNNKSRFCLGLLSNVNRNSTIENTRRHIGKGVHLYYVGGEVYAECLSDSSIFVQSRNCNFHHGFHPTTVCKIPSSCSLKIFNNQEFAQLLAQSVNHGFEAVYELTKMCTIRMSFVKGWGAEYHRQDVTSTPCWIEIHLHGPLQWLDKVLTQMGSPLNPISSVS
UniProt Q9BWW4: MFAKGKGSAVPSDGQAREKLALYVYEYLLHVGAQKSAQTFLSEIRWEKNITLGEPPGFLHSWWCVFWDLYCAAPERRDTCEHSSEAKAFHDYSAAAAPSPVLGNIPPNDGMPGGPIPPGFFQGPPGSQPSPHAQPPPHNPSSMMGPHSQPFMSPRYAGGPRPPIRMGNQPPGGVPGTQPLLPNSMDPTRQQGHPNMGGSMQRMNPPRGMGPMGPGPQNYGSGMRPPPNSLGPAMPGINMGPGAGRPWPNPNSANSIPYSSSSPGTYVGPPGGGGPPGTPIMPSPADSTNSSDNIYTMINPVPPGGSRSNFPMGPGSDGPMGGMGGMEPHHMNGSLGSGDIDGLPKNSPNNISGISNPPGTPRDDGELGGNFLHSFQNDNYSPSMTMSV
UniProt O60493, whole entry: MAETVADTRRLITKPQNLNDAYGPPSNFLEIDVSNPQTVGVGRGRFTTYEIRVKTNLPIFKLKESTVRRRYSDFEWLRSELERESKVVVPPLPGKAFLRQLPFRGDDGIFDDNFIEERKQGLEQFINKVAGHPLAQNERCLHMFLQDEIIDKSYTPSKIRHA
UniProt O15400: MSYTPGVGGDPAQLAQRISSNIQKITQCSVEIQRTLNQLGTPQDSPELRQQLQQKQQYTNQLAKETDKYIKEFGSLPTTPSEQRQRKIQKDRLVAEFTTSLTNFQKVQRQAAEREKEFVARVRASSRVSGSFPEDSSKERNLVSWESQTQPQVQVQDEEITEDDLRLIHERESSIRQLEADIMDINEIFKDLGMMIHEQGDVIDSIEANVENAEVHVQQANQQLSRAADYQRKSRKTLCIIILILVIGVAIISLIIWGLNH
UniProt P30626: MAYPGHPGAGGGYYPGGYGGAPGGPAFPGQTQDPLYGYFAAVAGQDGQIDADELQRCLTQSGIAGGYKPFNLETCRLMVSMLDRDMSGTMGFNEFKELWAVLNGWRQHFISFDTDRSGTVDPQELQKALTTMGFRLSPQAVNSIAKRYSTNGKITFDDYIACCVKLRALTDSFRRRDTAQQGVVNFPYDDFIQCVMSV
UniProt O94804: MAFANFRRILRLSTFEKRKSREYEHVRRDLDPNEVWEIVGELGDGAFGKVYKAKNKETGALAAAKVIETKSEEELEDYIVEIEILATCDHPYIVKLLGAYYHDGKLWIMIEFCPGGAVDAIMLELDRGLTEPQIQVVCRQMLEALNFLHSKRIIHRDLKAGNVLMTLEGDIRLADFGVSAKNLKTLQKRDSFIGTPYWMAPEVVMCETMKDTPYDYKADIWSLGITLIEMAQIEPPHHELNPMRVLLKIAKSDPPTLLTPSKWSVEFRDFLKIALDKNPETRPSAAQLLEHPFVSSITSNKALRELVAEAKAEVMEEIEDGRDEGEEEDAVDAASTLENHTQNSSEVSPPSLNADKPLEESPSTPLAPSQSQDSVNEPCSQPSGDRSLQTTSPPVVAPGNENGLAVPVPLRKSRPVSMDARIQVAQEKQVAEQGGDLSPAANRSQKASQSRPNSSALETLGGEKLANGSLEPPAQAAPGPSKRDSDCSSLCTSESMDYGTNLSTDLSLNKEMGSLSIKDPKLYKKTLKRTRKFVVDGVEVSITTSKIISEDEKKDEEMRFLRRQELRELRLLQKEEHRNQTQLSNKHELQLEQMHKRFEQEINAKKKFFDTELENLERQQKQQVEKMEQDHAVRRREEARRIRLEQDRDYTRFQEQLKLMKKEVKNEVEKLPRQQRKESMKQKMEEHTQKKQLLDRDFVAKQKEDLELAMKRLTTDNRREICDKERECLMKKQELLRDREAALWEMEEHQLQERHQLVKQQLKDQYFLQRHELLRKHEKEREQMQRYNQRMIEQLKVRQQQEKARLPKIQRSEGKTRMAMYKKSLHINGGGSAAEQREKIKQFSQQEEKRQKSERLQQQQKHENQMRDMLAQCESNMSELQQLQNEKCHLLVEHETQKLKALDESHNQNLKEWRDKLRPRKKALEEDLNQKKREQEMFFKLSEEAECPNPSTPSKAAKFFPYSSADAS
UniProt O00193: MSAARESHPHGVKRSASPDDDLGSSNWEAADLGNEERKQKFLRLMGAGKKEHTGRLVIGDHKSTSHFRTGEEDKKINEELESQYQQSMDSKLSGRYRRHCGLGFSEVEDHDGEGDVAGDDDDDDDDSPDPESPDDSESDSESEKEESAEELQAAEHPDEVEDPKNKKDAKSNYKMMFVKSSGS
UniProt Q9Y5B9, whole entry: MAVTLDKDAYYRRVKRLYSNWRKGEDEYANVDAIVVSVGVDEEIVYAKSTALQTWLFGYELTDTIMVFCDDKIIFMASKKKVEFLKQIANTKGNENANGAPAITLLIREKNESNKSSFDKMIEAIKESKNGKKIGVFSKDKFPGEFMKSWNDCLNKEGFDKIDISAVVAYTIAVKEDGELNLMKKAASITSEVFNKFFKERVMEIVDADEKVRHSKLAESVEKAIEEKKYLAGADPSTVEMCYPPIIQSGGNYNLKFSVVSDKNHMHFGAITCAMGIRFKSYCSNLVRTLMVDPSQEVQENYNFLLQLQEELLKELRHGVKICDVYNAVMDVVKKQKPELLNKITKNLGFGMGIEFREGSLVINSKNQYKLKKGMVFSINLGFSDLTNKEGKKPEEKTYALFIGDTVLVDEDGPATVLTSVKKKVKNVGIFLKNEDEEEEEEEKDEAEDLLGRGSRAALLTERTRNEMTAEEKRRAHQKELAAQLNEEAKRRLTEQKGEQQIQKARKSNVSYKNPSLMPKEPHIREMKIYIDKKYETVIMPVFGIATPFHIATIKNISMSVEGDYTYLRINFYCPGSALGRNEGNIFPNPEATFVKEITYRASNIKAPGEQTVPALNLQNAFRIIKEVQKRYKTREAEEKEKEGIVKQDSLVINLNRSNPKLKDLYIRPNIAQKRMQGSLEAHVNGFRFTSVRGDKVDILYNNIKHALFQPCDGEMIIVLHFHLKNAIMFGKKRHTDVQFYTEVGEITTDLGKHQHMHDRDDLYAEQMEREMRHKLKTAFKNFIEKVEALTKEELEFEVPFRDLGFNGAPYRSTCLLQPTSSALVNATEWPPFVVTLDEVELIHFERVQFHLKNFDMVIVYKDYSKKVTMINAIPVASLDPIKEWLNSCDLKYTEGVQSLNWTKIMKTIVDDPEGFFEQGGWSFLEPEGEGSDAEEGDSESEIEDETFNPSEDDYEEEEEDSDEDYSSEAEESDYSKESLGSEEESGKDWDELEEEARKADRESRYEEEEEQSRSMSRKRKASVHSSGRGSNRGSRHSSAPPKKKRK
UniProt P04179: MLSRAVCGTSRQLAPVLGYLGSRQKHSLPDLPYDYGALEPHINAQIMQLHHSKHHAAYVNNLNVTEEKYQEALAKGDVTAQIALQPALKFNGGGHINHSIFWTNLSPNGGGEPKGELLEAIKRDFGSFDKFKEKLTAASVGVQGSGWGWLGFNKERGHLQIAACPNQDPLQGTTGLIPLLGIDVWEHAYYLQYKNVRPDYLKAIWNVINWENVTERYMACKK
UniProt Q13247: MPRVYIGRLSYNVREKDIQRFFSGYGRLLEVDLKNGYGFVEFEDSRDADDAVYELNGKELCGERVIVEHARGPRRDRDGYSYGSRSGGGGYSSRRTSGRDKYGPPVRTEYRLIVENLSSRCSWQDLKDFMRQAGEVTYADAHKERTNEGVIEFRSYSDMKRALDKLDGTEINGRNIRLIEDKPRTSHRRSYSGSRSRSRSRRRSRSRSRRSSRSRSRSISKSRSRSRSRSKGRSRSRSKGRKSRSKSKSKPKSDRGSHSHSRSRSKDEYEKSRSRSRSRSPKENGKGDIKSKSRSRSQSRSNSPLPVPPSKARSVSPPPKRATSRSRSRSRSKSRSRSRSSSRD
UniProt O15304: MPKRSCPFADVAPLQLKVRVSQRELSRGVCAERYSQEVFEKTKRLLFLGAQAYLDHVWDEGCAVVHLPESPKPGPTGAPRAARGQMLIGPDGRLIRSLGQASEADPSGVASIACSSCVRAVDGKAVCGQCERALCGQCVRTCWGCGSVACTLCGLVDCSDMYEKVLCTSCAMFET
UniProt Q9NP77: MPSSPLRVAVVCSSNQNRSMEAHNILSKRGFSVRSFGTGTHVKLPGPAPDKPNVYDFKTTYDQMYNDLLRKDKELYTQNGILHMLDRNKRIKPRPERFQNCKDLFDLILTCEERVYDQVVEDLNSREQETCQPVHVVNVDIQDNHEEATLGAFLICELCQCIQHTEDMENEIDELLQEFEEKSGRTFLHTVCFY
UniProt Q96CW6: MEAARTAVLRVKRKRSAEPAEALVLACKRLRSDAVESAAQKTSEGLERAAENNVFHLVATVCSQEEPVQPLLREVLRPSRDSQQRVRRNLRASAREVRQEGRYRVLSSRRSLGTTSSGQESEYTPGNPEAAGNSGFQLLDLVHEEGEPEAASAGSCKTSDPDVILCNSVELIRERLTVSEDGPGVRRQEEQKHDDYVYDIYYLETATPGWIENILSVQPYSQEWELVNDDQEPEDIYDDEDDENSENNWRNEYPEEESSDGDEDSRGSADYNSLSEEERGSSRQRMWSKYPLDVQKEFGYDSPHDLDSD
UniProt Q07955, whole entry: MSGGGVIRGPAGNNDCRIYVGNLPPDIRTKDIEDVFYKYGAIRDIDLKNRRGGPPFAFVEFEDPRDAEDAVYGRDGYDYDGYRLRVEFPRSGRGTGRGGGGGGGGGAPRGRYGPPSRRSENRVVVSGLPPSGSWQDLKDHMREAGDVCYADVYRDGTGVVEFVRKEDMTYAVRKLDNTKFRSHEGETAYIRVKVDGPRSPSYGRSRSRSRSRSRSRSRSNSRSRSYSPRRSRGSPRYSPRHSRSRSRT
UniProt Q8TEQ0: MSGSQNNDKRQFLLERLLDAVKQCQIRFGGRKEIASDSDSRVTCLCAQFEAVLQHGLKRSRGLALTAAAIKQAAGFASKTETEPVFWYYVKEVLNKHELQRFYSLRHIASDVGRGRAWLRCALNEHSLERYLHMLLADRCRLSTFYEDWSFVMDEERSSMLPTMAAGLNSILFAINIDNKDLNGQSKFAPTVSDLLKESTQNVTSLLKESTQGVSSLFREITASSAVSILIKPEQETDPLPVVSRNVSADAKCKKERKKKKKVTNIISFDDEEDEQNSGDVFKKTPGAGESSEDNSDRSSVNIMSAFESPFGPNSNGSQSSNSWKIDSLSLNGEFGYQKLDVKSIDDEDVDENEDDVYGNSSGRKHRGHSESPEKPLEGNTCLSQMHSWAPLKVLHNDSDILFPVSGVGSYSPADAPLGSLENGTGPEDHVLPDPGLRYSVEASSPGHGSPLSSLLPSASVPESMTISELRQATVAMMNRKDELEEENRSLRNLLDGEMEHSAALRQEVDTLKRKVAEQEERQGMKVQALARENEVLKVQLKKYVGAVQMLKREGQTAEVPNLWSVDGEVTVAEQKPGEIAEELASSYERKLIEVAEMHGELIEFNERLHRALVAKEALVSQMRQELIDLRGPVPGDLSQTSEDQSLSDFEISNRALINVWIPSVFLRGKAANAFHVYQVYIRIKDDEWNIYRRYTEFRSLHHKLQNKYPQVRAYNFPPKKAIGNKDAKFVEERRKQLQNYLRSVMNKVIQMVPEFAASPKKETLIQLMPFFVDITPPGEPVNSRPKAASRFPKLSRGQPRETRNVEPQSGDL
UniProt Q969G3, whole entry: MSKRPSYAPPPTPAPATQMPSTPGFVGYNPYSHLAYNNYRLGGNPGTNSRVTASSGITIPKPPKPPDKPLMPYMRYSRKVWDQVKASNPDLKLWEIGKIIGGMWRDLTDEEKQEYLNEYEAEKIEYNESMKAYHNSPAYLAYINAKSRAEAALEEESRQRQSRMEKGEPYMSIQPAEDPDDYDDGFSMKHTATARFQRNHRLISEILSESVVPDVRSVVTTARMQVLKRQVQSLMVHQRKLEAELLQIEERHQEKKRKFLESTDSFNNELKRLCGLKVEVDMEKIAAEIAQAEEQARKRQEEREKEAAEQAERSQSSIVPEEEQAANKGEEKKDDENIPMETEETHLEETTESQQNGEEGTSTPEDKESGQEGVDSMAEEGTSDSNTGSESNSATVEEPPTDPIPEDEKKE

Row | Target | dose-dependent thermal stabilisation call
1 | SYNCRIP (UniProt O60506) | inactive: 0
2 | SP100 (UniProt P23497) | inactive: 0
3 | SMC1B (UniProt Q8NDV3) | inactive: 0
4 | STK35 (UniProt Q8TDR2) | active: 1
5 | SKP1 (UniProt P63208) | inactive: 0
6 | SMAD5 (UniProt Q99717) | inactive: 0
7 | SSBP3 (UniProt Q9BWW4) | inactive: 0
8 | SNX3 (UniProt O60493) | inactive: 0
9 | SYNJ2 (UniProt O15056) | inactive: 0
10 | STX7 (UniProt O15400) | inactive: 0
11 | SLC4A1AP (UniProt Q9BWU0) | inactive: 0
12 | SRI (UniProt P30626) | inactive: 0
13 | STK10 (UniProt O94804) | inactive: 0
14 | SPTAN1 (UniProt Q13813) | inactive: 0
15 | SMAP (UniProt O00193) | inactive: 0
16 | SH3PXD2B (UniProt A1X283) | inactive: 0
17 | SUPT16H (UniProt Q9Y5B9) | inactive: 0
18 | SOD2 (UniProt P04179) | inactive: 0

Row | Target | dose-dependent thermal stabilisation call
19 | SMG7 (UniProt Q92540) | inactive: 0
20 | TACO1 (UniProt Q9BSH4) | inactive: 0
21 | SRSF6 (UniProt Q13247) | active: 1
22 | SMARCAL1 (UniProt Q9NZC9) | inactive: 0
23 | SH3KBP1 (UniProt Q96B97) | inactive: 0
24 | SIVA1 (UniProt O15304) | inactive: 0
25 | SKA3 (UniProt Q8IX90) | inactive: 0
26 | SSU72 (UniProt Q9NP77) | inactive: 0
27 | SLC7A6OS (UniProt Q96CW6) | inactive: 0
28 | SMCHD1 (UniProt A6NHR9) | inactive: 0
29 | SRSF1 (UniProt Q07955) | active: 1
30 | SNX29 (UniProt Q8TEQ0) | inactive: 0
31 | STUB1 (UniProt Q9UNE7) | inactive: 0
32 | SMARCE1 (UniProt Q969G3) | inactive: 0
33 | SYNE1 (UniProt Q8NF91) | inactive: 0
34 | SIK3 (UniProt Q9Y2K2) | inactive: 0
35 | SRP14 (UniProt P37108) | inactive: 0
36 | SNRPA1 (UniProt P09661) | inactive: 0

Part of the list above, set out differently.
Row,Target,dose-dependent thermal stabilisation call
21,SRSF6 (UniProt Q13247),active: 1
26,SSU72 (UniProt Q9NP77),inactive: 0
